Results: article PMC7923543, “Molecular mechanisms of assembly and TRIP13-mediated remodeling of the human Shieldin complex” (Proceedings of the National Academy of Sciences of the …, 2021)
Results are given in words; binding and its absence hold for the method and conditions named. Some entries that bind do so weakly or less than the wild type.

The chains behind the UniProt entries cited, without tags or fusion partners. Where a name states a change or a piece, a line headed by the entry shows the natural chain unless it says otherwise.
UniProt Q9UI95: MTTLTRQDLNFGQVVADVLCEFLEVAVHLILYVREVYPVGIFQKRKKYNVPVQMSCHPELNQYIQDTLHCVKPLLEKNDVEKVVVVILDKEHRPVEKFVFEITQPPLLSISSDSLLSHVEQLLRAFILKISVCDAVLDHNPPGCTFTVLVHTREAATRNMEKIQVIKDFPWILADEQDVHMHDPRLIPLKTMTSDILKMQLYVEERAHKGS
UniProt Q86V20: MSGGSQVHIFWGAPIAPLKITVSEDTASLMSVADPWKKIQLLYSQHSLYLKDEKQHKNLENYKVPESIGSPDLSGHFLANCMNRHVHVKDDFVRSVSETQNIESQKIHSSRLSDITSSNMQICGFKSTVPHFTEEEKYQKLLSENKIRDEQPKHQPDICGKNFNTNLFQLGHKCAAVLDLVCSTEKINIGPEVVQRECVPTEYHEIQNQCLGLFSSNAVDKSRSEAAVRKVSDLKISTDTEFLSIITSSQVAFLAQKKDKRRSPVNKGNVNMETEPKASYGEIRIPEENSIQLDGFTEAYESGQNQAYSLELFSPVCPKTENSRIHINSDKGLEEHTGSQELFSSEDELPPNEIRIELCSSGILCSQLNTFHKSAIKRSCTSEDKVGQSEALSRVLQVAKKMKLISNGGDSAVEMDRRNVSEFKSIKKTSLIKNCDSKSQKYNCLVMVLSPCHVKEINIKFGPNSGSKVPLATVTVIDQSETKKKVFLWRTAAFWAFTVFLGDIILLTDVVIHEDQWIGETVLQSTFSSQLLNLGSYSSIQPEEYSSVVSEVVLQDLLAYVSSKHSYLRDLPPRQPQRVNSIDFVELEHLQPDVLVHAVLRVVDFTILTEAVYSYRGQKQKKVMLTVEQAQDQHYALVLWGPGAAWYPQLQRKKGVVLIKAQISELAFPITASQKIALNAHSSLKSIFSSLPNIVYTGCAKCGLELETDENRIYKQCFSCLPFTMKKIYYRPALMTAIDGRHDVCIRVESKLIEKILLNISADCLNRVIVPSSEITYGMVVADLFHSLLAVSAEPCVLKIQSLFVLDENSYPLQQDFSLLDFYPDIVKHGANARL

How the values were obtained:
[1] = target: T1, REV7 (R124A mutant), full-length (human, UniProt Q9UI95 1-211, R124A); test: SEC-MALS; coexpressed, co-purified SHLD3(35–74)–REV7(R124A) complex; Superdex200 10/300, 20 mM Tris·HCl pH 7.5, 150 mM NaCl, 2 mM DTT; both purified
T1 construct: REV7 (MAD2L2, MAD2B), human, 211 residues, R124A; R124A was introduced to improve crystallization; also called MAD2L2; MAD2B; source: E. coli BL21 CodonPlus(DE3)-RIL, coexpressed with the SHLD3 fragment, purified (HisTrap, HiTrap Q, Superdex 200); not shown: His6-SUMO, N-terminal, cleaved

[2] = target: T2, SHLD3 fragment (residues 1 to 58), the SHLD3 part of SHLD2.3 (human) (UniProt Q6ZNX1); test: crystal structure; SHLD2.3–REV7_(4) complex (peak Q2); hanging drop, 0.1 M Na acetate pH 5.6, 1.5 M Na formate, 20 °C; 3.8 Å; both purified
T2 sequence: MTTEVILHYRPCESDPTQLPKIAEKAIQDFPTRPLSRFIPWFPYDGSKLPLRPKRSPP

REV7 = target: T3, REV7 (human, UniProt Q9UI95 1-211); test: as above
T3 construct: REV7 (MAD2L2, MAD2B), human, 211 residues; also called MAD2L2; MAD2B; not shown: His6-SUMO, N-terminal, cleaved

REV7 (R124A mutant), full-length (from UniProt Q9UI95 1-211)
binding [1]: no binding

B1: SHLD2 fragment (residues 1 to 19), the SHLD2 part of SHLD2.3 (domain or fragment, human, UniProt Q86V20 1-19, looked up)
chain: MSGGSQVHIFWGAPIAPLK
notes: In the crystal it stood on one chain with SHLD3(1-58); written apart for the SHLD2–SHLD3 and SHLD2–REV7 contacts; also called SHLD2(residues 1 to 19); source: E. coli BL21 CodonPlus(DE3)-RIL, as part of the SHLD2.3 fusion chain, purified with REV7
binding [2]: binds

B2: SHLD3 fragment (residues 1 to 58), the SHLD3 part of SHLD2.3 (domain or fragment, UniProt Q6ZNX1 1-58)
chain: MTTEVILHYRPCESDPTQLPKIAEKAIQDFPTRPLSRFIPWFPYDGSKLPLRPKRSPP
binding (REV7): binds
